Experimental data taken from patent publication US20060078977A1.
These are yes or no findings as the source states them, for the method shown. Some entries that bind do so weakly or less than the wild type.

Molecular target: Enterococcus faecalis ribose-phosphate pyrophosphokinase (PRPP synthetase), polypeptide having SEQ ID NO: 4, His tagged at the N-terminus, as crystallized (Enterococcus faecalis) (UniProt Q82ZA5)
Test: X-ray crystal structure, self-association of subunits in the homohexamer

## Enterococcus faecalis ribose-phosphate pyrophosphokinase (PRPP synthetase), polypeptide having SEQ ID NO: 4, His tagged at the N-terminus, as crystallized (from UniProt Q82ZA5 1-323) (enzyme)
  binding: binds
